Record: PubChem BioAssay AID1224828 (NIAID, 2016)

- Screen: 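Find genes required for NF-kappaB p65 moving into the nucleus after LPS in mouse macrophages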 (primary screen)
- Cells: mouse RAW264.7 G9 macrophage reporter cells (GFP-p65, Tnf promoter-mCherry)
- Knock-down reagent: siRNA pool against mouse genes, 100 nM
- Time to read-out: 2 days siRNA transfection, then 40 min LPS before fixation
- Challenge: LPS (Salmonella minnesota R595) at 10 ng/ml
- Read-out: 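Microscopy ratio of nuclear to perinuclear-ring GFP-p65 signal, scaled to the plate median; gene score is the average of two replicate robust z-scores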
- Direction: p65 translocation robust z-score: higher = more nuclear NF-kappaB p65 after LPS than the plate median; nuclear/cytoplasmic p65 ratio: higher = more nuclear NF-kappaB p65
- Active means: 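Called active when z exceeds 3.3 or falls under -1.56 (median of Tlr4 controls), giving activity score of at least 50; no calls for control wells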
- Calls: active = hit (p65 shift raised or lowered); inactive = no clear change
Shown is a random part of about 17,000 reagents tested. 762 of all reagents (4.5%) count as active. 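Active calls include both raised and lowered p65 entry, mostly lowered; wells with fewer than 50 cells lack a z-score.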 The raw values are shown without normalisation. Unmarked entries are inactive.

Against Mgat4c (GeneID 67569), the entry reads p65 translocation robust z-score -0.22; nuclear/cytoplasmic p65 ratio, rep 1 = 1.4; nuclear/cytoplasmic p65 ratio, rep 2 = 1.51; low cell count flag enough cells to score.
C1rl (GeneID 232371) gave nuclear/cytoplasmic p65 ratio, rep 1 = 1.42; nuclear/cytoplasmic p65 ratio, rep 2 = 1.49; low cell count flag fewer than 50 cells per well; well left out of scoring.
Against Golm1 (GeneID 105348) the deposit lists p65 translocation robust z-score -1.56; nuclear/cytoplasmic p65 ratio, rep 1 = 1.28; nuclear/cytoplasmic p65 ratio, rep 2 = 1.44; low cell count flag enough cells to score.
With knock-down of Gng3 (GeneID 14704) the results were p65 translocation robust z-score -0.24; nuclear/cytoplasmic p65 ratio, rep 1 = 1.49; nuclear/cytoplasmic p65 ratio, rep 2 = 1.53; low cell count flag enough cells to score.
Thumpd3 (GeneID 14911) gave p65 translocation robust z-score -0.69; nuclear/cytoplasmic p65 ratio, rep 1 = 1.49; nuclear/cytoplasmic p65 ratio, rep 2 = 1.49; low cell count flag enough cells to score.
Depletion of Tfb2m (GeneID 15278) resulted in: p65 translocation robust z-score -0.29; nuclear/cytoplasmic p65 ratio, rep 1 = 1.47; nuclear/cytoplasmic p65 ratio, rep 2 = 1.48; low cell count flag enough cells to score.
Against Elmo3 (GeneID 234683) the deposit lists p65 translocation robust z-score -0.57; nuclear/cytoplasmic p65 ratio, rep 1 = 1.3; nuclear/cytoplasmic p65 ratio, rep 2 = 1.3; low cell count flag enough cells to score.
For Wdr37 (GeneID 207615), the entry reads nuclear/cytoplasmic p65 ratio, rep 1 = 1.17; nuclear/cytoplasmic p65 ratio, rep 2 = 1.05; low cell count flag fewer than 50 cells per well; well left out of scoring.
Ica1 (GeneID 15893) showed p65 translocation robust z-score -0.12; nuclear/cytoplasmic p65 ratio, rep 1 = 1.6; nuclear/cytoplasmic p65 ratio, rep 2 = 1.36; low cell count flag enough cells to score.
Dhps (GeneID 330817) gave p65 translocation robust z-score -0.96; nuclear/cytoplasmic p65 ratio, rep 1 = 1.45; nuclear/cytoplasmic p65 ratio, rep 2 = 1.39; low cell count flag enough cells to score.
Fam241b (GeneID 69894) scored nuclear/cytoplasmic p65 ratio, rep 1 = 1.52; nuclear/cytoplasmic p65 ratio, rep 2 = 1.31; low cell count flag fewer than 50 cells per well; well left out of scoring.
Mmut (GeneID 17850) showed p65 translocation robust z-score 0.82; nuclear/cytoplasmic p65 ratio, rep 1 = 1.6; nuclear/cytoplasmic p65 ratio, rep 2 = 1.4; low cell count flag enough cells to score.
For Slfn5 (GeneID 327978), the values are nuclear/cytoplasmic p65 ratio, rep 1 = 1.13; nuclear/cytoplasmic p65 ratio, rep 2 = 1.1; low cell count flag fewer than 50 cells per well; well left out of scoring.
With knock-down of Or5ae2 (GeneID 258410), the record shows nuclear/cytoplasmic p65 ratio, rep 1 = 1.51; nuclear/cytoplasmic p65 ratio, rep 2 = 1.3; low cell count flag fewer than 50 cells per well; well left out of scoring.
Against Msh5 (GeneID 17687) the deposit lists p65 translocation robust z-score 1; nuclear/cytoplasmic p65 ratio, rep 1 = 1.65; nuclear/cytoplasmic p65 ratio, rep 2 = 1.4; low cell count flag enough cells to score.
After knock-down of Irf7 (GeneID 54123), the record shows p65 translocation robust z-score 0.44; nuclear/cytoplasmic p65 ratio, rep 1 = 1.55; nuclear/cytoplasmic p65 ratio, rep 2 = 1.42; low cell count flag enough cells to score.
For Vmn1r206 (GeneID 171250) the deposit lists p65 translocation robust z-score -0.16; nuclear/cytoplasmic p65 ratio, rep 1 = 1.4; nuclear/cytoplasmic p65 ratio, rep 2 = 1.21; low cell count flag enough cells to score.
Mast1 (GeneID 56527) gave p65 translocation robust z-score -1.24; nuclear/cytoplasmic p65 ratio, rep 1 = 1.4; nuclear/cytoplasmic p65 ratio, rep 2 = 1.22; low cell count flag enough cells to score.
Against Gabpb2 (GeneID 213054), the values are p65 translocation robust z-score -0.19; nuclear/cytoplasmic p65 ratio, rep 1 = 1.55; nuclear/cytoplasmic p65 ratio, rep 2 = 1.45; low cell count flag enough cells to score.
With knock-down of Sdk2 (GeneID 237979), the record shows nuclear/cytoplasmic p65 ratio, rep 1 = 1.33; nuclear/cytoplasmic p65 ratio, rep 2 = 1.38; low cell count flag fewer than 50 cells per well; well left out of scoring.
Kif18a (GeneID 228421) gave p65 translocation robust z-score 1.32; nuclear/cytoplasmic p65 ratio, rep 1 = 1.68; nuclear/cytoplasmic p65 ratio, rep 2 = 1.53; low cell count flag enough cells to score.
Depletion of Derl2 (GeneID 116891) resulted in: p65 translocation robust z-score -0.2; nuclear/cytoplasmic p65 ratio, rep 1 = 1.48; nuclear/cytoplasmic p65 ratio, rep 2 = 1.89; low cell count flag enough cells to score.
For Cks1b (GeneID 54124), the entry reads p65 translocation robust z-score -2.7 (active); nuclear/cytoplasmic p65 ratio, rep 1 = 1.13; nuclear/cytoplasmic p65 ratio, rep 2 = 1.15; low cell count flag enough cells to score.
Nsfl1c (GeneID 386649) showed nuclear/cytoplasmic p65 ratio, rep 1 = 1.35; nuclear/cytoplasmic p65 ratio, rep 2 = 1.22; low cell count flag fewer than 50 cells per well; well left out of scoring.
Depletion of Slc35a5 (GeneID 74102) resulted in: nuclear/cytoplasmic p65 ratio, rep 1 = 1.28; nuclear/cytoplasmic p65 ratio, rep 2 = 1.19; low cell count flag fewer than 50 cells per well; well left out of scoring.
After knock-down of F10 (GeneID 14058), the record shows p65 translocation robust z-score 0.21; nuclear/cytoplasmic p65 ratio, rep 1 = 1.54; nuclear/cytoplasmic p65 ratio, rep 2 = 1.36; low cell count flag enough cells to score.
Or13a1 (GeneID 258914) showed p65 translocation robust z-score -1.76 (active); nuclear/cytoplasmic p65 ratio, rep 1 = 1.5; nuclear/cytoplasmic p65 ratio, rep 2 = 1.2; low cell count flag enough cells to score.
